# Results: US6977264B2, “Substituted piperidines and methods of use” (Amgen Inc., priority 2001, dated 2005)
# Some results were stated once for a whole list of compounds, not compound by compound.
# System: Male C57BL/6 mice
# Assay: Fast-induced food intake in mice
# Assay type: in vivo
# Details: fasted male C57BL/6 mice; cumulative food intake 1, 2 and 4 hr vs vehicle
row,Compound,concentration (dose) that caused a reduction in feeding [mg/kg]
1,"CS(=O)(=O)N(CC1CC1)c1ccccc1C1CCN(C(=O)[C@@H](Cc2ccc(Cl)cc2)NC(=O)[C@@H]2Cc3ccccc3CN2)CC1 [Example 11, N-[(1R)-1-[(4-Chlorophenyl)methyl]-2-(4-{2-[(cyclopropylmethyl)-(methylsulfonyl)amino]-phenyl}piperidyl)-2-oxoethyl]((3S)(3-1,2,3,4-tetrahydroisoquinolyl))carboxamide]",≤ 30
2,"CS(=O)(=O)N(CC1CC1)c1ccccc1C1CCN(C(=O)[C@@H](Cc2ccc(Cl)cc2)NC(=O)C2CNC2)CC1 [Example 12, N-[(1R)-1-[(4-Chlorophenyl)methyl]-2-(4-{2-[(cyclopropylmethyl)-(methylsulfonyl)amino]phenyl)-piperidyl}-2-oxoethyl]azetidin-3-ylcarboxamide]",≤ 30
3,CS(=O)(=O)N(CCN)c1ccccc1C1CCN(C(=O)[C@@H](Cc2ccc(Cl)cc2)NC(=O)[C@@H]2Cc3ccccc3CN2)CC1 [Example 16],≤ 30
